The values are deposited in ChEMBL (CHEMBL3988442, “University of Dundee, Small-Polar-MMV Screening Library” (2021)).

Values are the deposited “Percent Effect”, in %. How 0% and 100% were set is not recorded. Most values in the screen are low, and negative values occur. This is an unselected part of the compounds tested. Two or more numbers in one place are separate tests of the same structure; such repeats can differ widely.

A: 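Whole-cell growth test on Mycobacterium tuberculosis, read after 4 days in a medium based on cholesterol and the lipid DPPC; the read-out is not stated. Compounds at 50 µM. Higher reads as more growth inhibition (inferred: compounds with an IC50 in retests scored well above the rest). Size under these conditions: about 69,000 compounds, about 370 of them at 50% or above in at least one test.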
B: 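Whole-cell growth test on Mycobacterium tuberculosis, read after 3 days in glucose-containing 7H9 medium; the read-out is not stated. Tested at 50 µM. Direction is inferred from retests: higher values go with more growth inhibition. Size under these conditions: about 69,000 compounds, about 760 of them at 50% or above in at least one test.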

{"structure": "CC(C)OCCN1CCC(N2CCN(C)C2=O)CC1", "A": -6.12, "B": 0.1668}
{"structure": "CCc1ccc(CNC(=O)Cn2ccc3sccc3c2=O)cc1", "A": 0.6767, "B": 6.081}
{"structure": "COc1cccc(Cl)c1C(C(=O)O)N1CCC(O)(c2cccnc2)CC1", "stereo": "stereo unspecified", "A": 2.603, "B": -50.02}
{"structure": "COc1ccc2c(c1)OCC(CNC(=O)c1ccncc1)C2", "stereo": "stereo unspecified", "A": -19.53, "B": 23.43}
{"structure": "COc1ccc(-n2ccnc2-c2cnc(N(C)C)nc2)cc1OC", "A": -28.74, "B": -10.17}
{"structure": "CCC(C(=O)Nc1ccc2c(C)n[nH]c2c1)N1CCCC1=O", "stereo": "stereo unspecified", "A": -24.55, "B": -11.94}
{"structure": "O=C(O)C(F)(F)F.O=C(O)C(F)(F)F.O=C(O)C(F)(F)F.c1cnc(N2CCC3(CCN(Cc4cccnc4)CC3)CC2)nc1", "A": -11.37, "B": -9.439}
{"structure": "Cc1cccc(CN(C(=O)NCc2ccccn2)C2CC2)c1", "A": -9.916, "B": "-13.04 and 5.846"}
{"structure": "C=C(C)CN1CCC(NC(=O)Nc2cc(C(N)=O)ccc2OC)CC1", "A": 8.941, "B": "-10.67 and -1.279"}
{"structure": "CN(C)c1cc2c(nn1)CCN(C(=O)C1Cc3ccccc3O1)C2", "stereo": "stereo unspecified", "A": 21.2, "B": "6.43 and -33.15"}
{"structure": "O=C(Nc1ccc(F)cc1)C1CNCCN1C(=O)CC1CCCCC1", "stereo": "stereo unspecified", "A": -6.9, "B": "2.141 and -4.577"}
{"structure": "Cc1ccc(N2CCCC3(COCCN(c4ccccn4)C3)C2)nn1.O=C(O)C(F)(F)F", "stereo": "stereo unspecified", "A": -11.41, "B": -24.03}
{"structure": "O=C(c1ccccc1-n1cccn1)N1CCC(Nc2cccnn2)CC1", "A": 6.628, "B": 7.654}
{"structure": "CCN1CC2(CC1=O)CN(C(=O)NC(C)C)CCN(C(=O)C(C)C)C2", "stereo": "stereo unspecified", "A": -9.808, "B": -6.297}
{"structure": "N#Cc1ccc(N2CCCN(CC(=O)N3CCNC(=O)C3)CC2)cc1", "A": 15.14, "B": 26.33}
{"structure": "CC(C)(C)c1cnc(CN2CCC(c3ccnn3CCO)CC2)o1", "A": 14.99, "B": 1.901}
{"structure": "OC1(CN2CCC(Cc3ccccc3)CC2)CCC1", "A": 17.95, "B": 37.95}
{"structure": "CC(NC(=O)NCCCN1CCCC1=O)c1ccc(Cl)s1", "stereo": "stereo unspecified", "A": -2.706, "B": -14.97}
{"structure": "CCCn1cc(NC(=O)c2cccc(CN3CC=CC3)c2)nn1", "A": -49.28, "B": "-7.835 and -6.523"}
{"structure": "CC(C)(C)CCNC(=O)c1ccc(Cl)c(NS(C)(=O)=O)c1", "A": -12.81, "B": -1.123}
{"structure": "CCc1ccccc1CN1CCn2nc(CNC(C)=O)cc2C1", "A": -26.36, "B": 7.715}
{"structure": "CC(NCc1ccco1)c1nnc2n1CCCC2", "stereo": "stereo unspecified", "A": 3.909, "B": -15.08}
{"structure": "O=C(O)C(F)(F)F.O=C(O)C(F)(F)F.c1ccc(OCC2CC3(CCN(c4ncccn4)CC3)CO2)nc1", "stereo": "stereo unspecified", "A": 4.947, "B": 47.81}
{"structure": "O=C(O)C(F)(F)F.[H][C@@]12CCN(c3cnccn3)C[C@]1([H])CN(C(=O)COCC)C2", "A": "-10.45 and -15.59", "B": 5.193}
{"structure": "CCC(CC)C(O)CNC(=O)Nc1cc(C)nn1C", "stereo": "stereo unspecified", "A": 19.16, "B": 9.539}
{"structure": "CCc1nc(C)ncc1C(=O)N1CC(=O)N(C)c2ccccc21", "A": 10.92, "B": -2.734}
{"structure": "CC1CN(C(=O)CN(Cc2ccco2)C2CC2)CCO1", "stereo": "stereo unspecified", "A": -16.31, "B": 7.352}
{"structure": "[H][C@@]12CN(Cc3ccccc3OC)CC[C@]1([H])N(C(C)=O)C[C@H]2c1ccsc1", "A": -18.53, "B": -35.49}
{"structure": "CC(C)(C)c1ccc(C2(C(=O)NCCS(N)(=O)=O)CC2)cc1", "A": -17.28, "B": -21.65}
{"structure": "NC(=O)CCn1cc(CNCCCc2ccncc2)c2ccccc21", "A": "-7.491 and -1.772", "B": 2.024}
{"structure": "CN1CCOC(C)(C(=O)Nc2nc(C(C)(C)C)cs2)C1", "stereo": "stereo unspecified", "A": "-6.246 and 20.73", "B": -32.21}
{"structure": "CS(=O)(=O)NCc1nnc2n1CCN(Cc1cccnc1)C2", "A": "8.314 and -2.027", "B": -37.29}
{"structure": "O=C(Cc1ccc(Br)s1)NCC(=O)Nc1cn[nH]c1", "A": 3.245, "B": "-38.83 and 9.53"}
{"structure": "O=C(CO)N1CCCC2(CCC(=O)N(CC3CC3)C2)C1", "stereo": "stereo unspecified", "A": 24.18, "B": "-10.28 and 0.2967"}
{"structure": "CC(C)n1ncc2c1NC(=O)C(C#N)C21CCCCC1", "stereo": "stereo unspecified", "A": 26.11, "B": 18.71}
{"structure": "Cc1ccsc1[C@@H]1CCN(C(=O)CCC(=O)N2CCCCCC2)C[C@H]1O", "A": -19.41, "B": "-15.86 and 31.13"}
{"structure": "COCCN(Cc1ccc(F)cc1Cl)C(=O)c1csnn1", "A": 3.062, "B": "21.73 and 0.2074"}
{"structure": "Cc1cc(F)ccc1CNCc1cccc(C(=O)N2CCCC2)c1", "A": 3.781, "B": -3.123}
{"structure": "COc1ccc2cc(CN(C)CCN3CCCCC3=O)c(=O)[nH]c2c1", "A": -3.631, "B": "3.722 and -22.86"}
{"structure": "CCCc1ccc(CN2CCC3(CCC(=O)N(C)CC3)CC2)o1", "A": -30.77, "B": -8.842}

The first 4 entries again:

| structure | A | B |
|---|---|---|
| `CC(C)OCCN1CCC(N2CCN(C)C2=O)CC1` | -6.12% | 0.1668% |
| `CCc1ccc(CNC(=O)Cn2ccc3sccc3c2=O)cc1` | 0.6767% | 6.081% |
| `COc1cccc(Cl)c1C(C(=O)O)N1CCC(O)(c2cccnc2)CC1` (stereo unspecified) | 2.603% | -50.02% |
| `COc1ccc2c(c1)OCC(CNC(=O)c1ccncc1)C2` (stereo unspecified) | -19.53% | 23.43% |